These are yes or no findings as the source states them, for the method shown. Some entries that bind do so weakly or less than the wild type. Sequences can lack the tags named with a protein.
Target: T1, purified recombinant N-terminally His-tagged rubisco activase (rRCA) (Arabidopsis thaliana) (UniProt P10896)
T1 sequence: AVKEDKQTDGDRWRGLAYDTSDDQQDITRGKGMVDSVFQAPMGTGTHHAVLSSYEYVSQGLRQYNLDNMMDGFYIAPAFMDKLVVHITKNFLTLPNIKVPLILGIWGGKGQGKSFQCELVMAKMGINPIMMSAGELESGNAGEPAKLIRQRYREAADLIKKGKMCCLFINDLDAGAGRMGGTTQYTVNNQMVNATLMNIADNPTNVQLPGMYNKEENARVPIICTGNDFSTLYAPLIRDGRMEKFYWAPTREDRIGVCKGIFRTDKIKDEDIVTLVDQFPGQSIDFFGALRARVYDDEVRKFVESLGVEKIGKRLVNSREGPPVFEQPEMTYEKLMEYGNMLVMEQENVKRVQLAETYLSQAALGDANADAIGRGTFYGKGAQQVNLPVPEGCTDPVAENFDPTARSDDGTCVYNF
Experiment: SPR; His-tagged rRCA immobilised on an NTA sensor chip, pAtPNP-A or pScr injected at the same concentration, unmodified reference surface; Biacore T100, 20 °C; both purified

binding: binds
B1: pAtPNP-A, N-terminally biotinylated AtPNP-A(33–66) peptide containing the active region of AtPNP-A (peptide, UniProt Q9ZV52 33-66)
peptide: YDPPYTRSACYGTQRETLVVGVKNNLWQNGRACG
modifications: biotin on the N-terminus; two cysteine residues forming a disulfide bond
